Measured values published in patent US20130315927A1 (Novartis, published 2013).
Results are given in words; binding and its absence hold for the method and conditions named.

The chains behind the UniProt entries cited, without tags or fusion partners. Residues count along the entry.
UniProt Q9NSA1, residues 29-209: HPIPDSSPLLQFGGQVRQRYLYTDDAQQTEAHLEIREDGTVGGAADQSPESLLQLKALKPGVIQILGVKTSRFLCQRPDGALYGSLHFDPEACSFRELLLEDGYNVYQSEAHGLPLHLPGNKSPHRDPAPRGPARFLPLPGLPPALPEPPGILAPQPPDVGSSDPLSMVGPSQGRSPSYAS

Columns and labels:
[1] = biological target: hFGF21 mFc (human) (UniProt Q9NSA1); assay: specificity ELISA, antigen coated at 88 ng per well, absorbance 650 nm
[2] = biological target: T1, hFgfr4 hFc (human, UniProt P22455); assay: as above
T1 sequence (fusion chain, looked up): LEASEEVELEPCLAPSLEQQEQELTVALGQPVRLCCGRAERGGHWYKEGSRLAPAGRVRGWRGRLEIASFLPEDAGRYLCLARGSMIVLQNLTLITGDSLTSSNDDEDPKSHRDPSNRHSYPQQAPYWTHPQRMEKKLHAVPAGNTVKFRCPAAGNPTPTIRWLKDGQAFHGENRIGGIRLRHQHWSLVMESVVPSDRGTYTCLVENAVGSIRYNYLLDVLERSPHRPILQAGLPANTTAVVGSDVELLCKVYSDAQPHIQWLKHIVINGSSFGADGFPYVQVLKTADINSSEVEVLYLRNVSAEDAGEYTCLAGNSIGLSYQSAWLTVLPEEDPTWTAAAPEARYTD

B1: mouse monoclonal antibody MAB1 (antibody, V domains shown)
VH: QVTLKESGPGILQPSQTLSLTCSFSGFSLSTSGMGVGWIRQPSGEGLEWLADIWWDDNKYYNPSLKSRLTVSKDTSSNQVFLKITSVDTADTATYYCALITTEGGFAYWGQGTLVTVSA
VL: DIVLTQSPATLSVTPGDSVSLSCRASQSINNNLHWYQQKSHESPRLLIKFASRSISGIPSKFSGSGSGTDFTLSINSVETEDFGMYFCQQSNYWPLTFGAGTNLELI
notes: also called parent mouse monoclonal antibody; murine anti-human Pcsk9 IgG1-kappa monoclonal antibody
- binding [1]: no binding (tested: 2 µg/mL (single concentration))
- binding [2]: no binding (tested: 2 µg/mL (single concentration))
